Structures can show the parent of a compound that is named as a salt. The list shows a part of the results. Most entries show no effect beyond the scatter of the controls.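 Melting temperature was read by differential scanning fluorimetry in a single-replicate pilot screen of a library of approved drugs and clinical or known-target compounds. Compounds raising the melting point by at least 2 °C were the top stabilizing hits, and negative shifts mean destabilization.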 Where a SMILES comes first, the peptide text is derived from it. [ ]: non-standard residue; d: D form. The star is where a group is joined. Benzoyl(4-tBu) = CC(C)(C)c1ccc(C(=O)*)cc1; Lys(Et2) = CCN(CC)CCCC[C@H](N)C(=O)O
tested on: SARS-CoV-2 main protease (Mpro, nsp5); experiment: thermal shift ΔTm of Mpro relative to plate average Tm; higher = stronger thermal stabilization of Mpro (binding); conditions: 10 µM; protein concentration 1 µM

Question: How did the “thermal shift ΔTm of Mpro” value turn out when `C[C@@H]1C/C=C/C=C/C=C/C=C/[C@H](O[C@@H]2O[C@H](C)[C@@H](O)[C@H](N)[C@@H]2O)C[C@@H]2O[C@](O)(C[C@@H](O)C[C@H]3O[C@@H]3/C=C/C(=O)O1)C[C@H](O)[C@H]2C(=O)O` [Natamycin] was run?
Answer: Its value is 0.646 °C.

Question: With `C[C@@H]1[C@@H](c2ccc(Cl)cc2)SC(=O)N1C(=O)NC1CCCCC1` [Hexythiazox] as the compound, how does the “thermal shift ΔTm of Mpro” value read?
Answer: Its value is 0.134 °C.

Question: `CC(C(O)c1ccc(O)cc1)N1CCC(Cc2ccccc2)CC1` (stereo unspecified) [Ifenprodil Tartrate] was tested. Which “thermal shift ΔTm of Mpro” value did it give?
Answer: Its value is -0.0745 °C.

Question: How did the “thermal shift ΔTm of Mpro” value turn out when `CONC(=O)Nc1ccc(-c2sc3c(c2CN(C)Cc2ccccc2)c(=O)n(-c2ccccc2)c(=O)n3Cc2c(F)cccc2F)cc1` [Sufugolix] was run?
Answer: The value was -0.153 °C.

Question: With `COC1=C[C@@H]2[C@@H]3Cc4ccc(OC)c(O)c4[C@]2(CCN3C)CC1=O` [Sinomenine] as the compound, how does the “thermal shift ΔTm of Mpro” value read?
Answer: Its value is 0.0242 °C.

Question: How did the “thermal shift ΔTm of Mpro” value turn out when `CC(C)[C@H](N)C(=O)OCCOCn1cnc2c(=O)nc(N)[nH]c21` [Valaciclovir HCl] was run?
Answer: Its value is 0.135 °C.

Question: `COc1ccc(N(C(=O)Oc2c(C)cccc2C)c2ccnc(Nc3ccc(N4CCN(C)CC4)cc3)n2)c(OC)c1` was tested. Which “thermal shift ΔTm of Mpro” value did it give?
Answer: The value was -0.236 °C.

Question: Which “thermal shift ΔTm of Mpro” value does the source give for `CC(C)N(CC[C@H](c1ccccc1)c1cc(CO)ccc1O)C(C)C` here?
Answer: Its value is 0.0572 °C.

Question: How did the “thermal shift ΔTm of Mpro” value turn out when `CC[C@H](NC(=O)[C@H](C)NC)C(=O)N1C[C@@H](O)C[C@H]1Cc1c(-c2[nH]c3cc(F)ccc3c2C[C@@H]2C[C@H](O)CN2C(=O)[C@H](CC)NC(=O)[C@H](C)NC)[nH]c2cc(F)ccc12` [Birinapant] was run?
Answer: Its value is -0.0171 °C.

Question: With `O=C(Nc1cnn2ccc(N3CCC[C@@H]3c3cc(F)ccc3F)nc12)N1CC[C@H](O)C1` [Larotrectinib sulfate] as the compound, how does the “thermal shift ΔTm of Mpro” value read?
Answer: Its value is -0.0319 °C.

Question: `CN1CCN2c3ncccc3Cc3ccccc3C2C1` (stereo unspecified) [Mirtazapine] was tested. Which “thermal shift ΔTm of Mpro” value did it give?
Answer: Its value is 0.0913 °C.

Question: For `CN(C(=O)CN(CCO)CC(=O)N(C)C(C)(C)Cc1ccccc1)C(C)(C)Cc1ccccc1` [Oxethazaine], which “thermal shift ΔTm of Mpro” value is on record?
Answer: The value was 0.109 °C.

Question: For `CC(C)(Oc1ccc(Cl)cc1)C(=O)OCCOC(=O)c1cccnc1` [Etofibrate], which “thermal shift ΔTm of Mpro” value is on record?
Answer: Its value is -0.0781 °C.

Question: `COC(=O)N/N=C/c1c[n+]([O-])c2ccccc2[n+]1[O-]` [Carbadox] was tested. Which “thermal shift ΔTm of Mpro” value did it give?
Answer: Its value is 0.15 °C.

Question: With `COc1cc(NS(=O)(=O)c2ccc(N)cc2)ncn1` [Sulfamonomethoxine] as the compound, how does the “thermal shift ΔTm of Mpro” value read?
Answer: Its value is 0.183 °C.

Question: With `CC1(C)O[C@@H]2C[C@H]3[C@@H]4C[C@H](F)C5=CC(=O)C=C[C@]5(C)[C@@]4(F)[C@@H](O)C[C@]3(C)[C@]2(C(=O)CO)O1` [Fluocinolone Acetonide] as the compound, how does the “thermal shift ΔTm of Mpro” value read?
Answer: The value was -0.0122 °C.

Question: Which “thermal shift ΔTm of Mpro” value does the source give for `CCc1nn(C)c(C(=O)NCc2ccc(Oc3ccc(C)cc3)cc2)c1Cl` [Tolfenpyrad] here?
Answer: Its value is -0.0484 °C.

Question: For `C/C(=C\c1csc(C)n1)[C@@H]1C[C@@H]2O[C@@H]2CCC[C@H](C)[C@H](O)[C@@H](C)C(=O)C(C)(C)[C@@H](O)CC(=O)O1` [Epothilone A], which “thermal shift ΔTm of Mpro” value is on record?
Answer: Its value is 0.304 °C.

Question: How did the “thermal shift ΔTm of Mpro” value turn out when `Cc1cc(C)nc(NS(=O)(=O)c2ccc(N)cc2)n1` [Sulfamethazine sodium salt] was run?
Answer: The value was 0.177 °C.

Question: How did the “thermal shift ΔTm of Mpro” value turn out when `Cc1cc(C)nc(NS(=O)(=O)c2ccc(N)cc2)n1` [Sulfamethazine] was run?
Answer: Its value is 0.0264 °C.

Question: `CC1(C)Cc2c(-c3ccccc3)c(-c3ccc(Cl)cc3)c(CC(=O)O)n2C1` [Licofelone] was tested. Which “thermal shift ΔTm of Mpro” value did it give?
Answer: The value was 0.232 °C.

Question: Which “thermal shift ΔTm of Mpro” value does the source give for `CCOc1ccccc1N=Nc1c(C)[nH]n(-c2nc(-c3ccccc3)cs2)c1=O` here?
Answer: Its value is 0.145 °C.

Question: For `CC(C)(C)c1cc(NC(=O)Nc2ccc(-c3cn4c(n3)sc3cc(OCCN5CCOCC5)ccc34)cc2)no1` [Quizartinib (AC220)], which “thermal shift ΔTm of Mpro” value is on record?
Answer: The value was 0.705 °C.

Question: How did the “thermal shift ΔTm of Mpro” value turn out when `CN1CCN(c2ccc(-c3cccc(CN4CCOCC4)c3)cc2NC(=O)c2c[nH]c(=O)cc2C(F)(F)F)CC1` was run?
Answer: The value was -0.0391 °C.

Question: Which “thermal shift ΔTm of Mpro” value does the source give for `CN(C)C(=O)/C(C#N)=C/c1ccc(-c2nc3cnc4[nH]ccc4c3n2C2CCCCC2)o1` here?
Answer: The value was 0.0502 °C.

Question: For `O=C(/C=C/c1cccc(S(=O)(=O)Nc2ccccc2)c1)NO` [Belinostat (PXD101)], which “thermal shift ΔTm of Mpro” value is on record?
Answer: Its value is 0.222 °C.

Question: For `Cc1c(N)c(=O)n(-c2ccccc2)n1C` [4-Aminoantipyrine], which “thermal shift ΔTm of Mpro” value is on record?
Answer: Its value is 0.297 °C.

Question: How did the “thermal shift ΔTm of Mpro” value turn out when `O=C(N=c1c(Cl)cn(O)cc1Cl)c1ccc(OC(F)F)c(OCC2CC2)c1` [Roflumilast N-oxide] was run?
Answer: The value was -0.0769 °C.

Question: `CCC(Sc1nnc2c3ccccc3n(CC)c2n1)C(=O)Nc1ccccc1OC` (stereo unspecified) was tested. Which “thermal shift ΔTm of Mpro” value did it give?
Answer: The value was -0.00282 °C.

Question: For `O=C(O)c1ccc[n+]([O-])c1` [Oxiniacic Acid], which “thermal shift ΔTm of Mpro” value is on record?
Answer: Its value is 0.184 °C.

Question: How did the “thermal shift ΔTm of Mpro” value turn out when `COc1cc2nccc(Oc3ccc(NC(=O)c4cn(C(C)C)c(=O)n(-c5ccc(F)cc5)c4=O)cc3F)c2cc1OC` was run?
Answer: Its value is 0.0693 °C.

Question: For `CCN(CC)CCCC[C@H](NC(=O)[C@H](CC(C)C)NC(=O)[C@H](C)NC(=O)[C@H](Cc1ccccc1)NC(=O)c1ccc(C(C)(C)C)cc1)C(=O)N[C@@H](CO)C(=O)OC` ({Benzoyl(4-tBu)}-FAL[Lys(Et2)]S-OMe), which “thermal shift ΔTm of Mpro” value is on record?
Answer: Its value is 0.0231 °C.

Question: With `CNC(=O)c1c(F)cccc1Nc1nc(Nc2cc3c(cc2OC)CCN3C(=O)CN(C)C)nc2[nH]ccc12` as the compound, how does the “thermal shift ΔTm of Mpro” value read?
Answer: Its value is -0.0672 °C.

Question: With `c1ccc(Cn2c(-c3ccc(OC[C@H](C4CCNCC4)n4c(-c5ccccc5)nc5ccccc54)cc3)nc3ccccc32)cc1` [Deltarasin] as the compound, how does the “thermal shift ΔTm of Mpro” value read?
Answer: The value was 0.0301 °C.

Question: How did the “thermal shift ΔTm of Mpro” value turn out when `O=C(Nc1cnc(Cl)nc1)c1ccc(F)c(F)c1` was run?
Answer: The value was 0.0348 °C.

Question: Which “thermal shift ΔTm of Mpro” value does the source give for `CCN(CCCCOC(=O)c1ccc(OC)c(OC)c1)C(C)Cc1ccc(OC)cc1` (stereo unspecified) [Mebeverine hydrochloride] here?
Answer: The value was 0.259 °C.

Source: the supplement of paper PMC8166895
